Values from PubChem BioAssay AID1259424 (University of Nebraska Medical Center, 2018).
The deposit covers about 14,000 reagents; this is an unselected part. 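Higher correlation or smaller distance means closer resemblance to KSR1 loss; control wells, including KSR1 knockdowns, recur on many plates.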 Not stated in the record: the time to read-out.

Test: 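Seek colon cancer survival genes behaving like KSR1, using a six-gene signature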 (primary screen)
Cell system: human HCT116 colon cancer cells
Reagents: siRNA pool against human genes, 50 nM
Measured: 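Six signature mRNAs by branched-DNA multiplex assay, scaled to two housekeeping genes and non-targeting median, log2; matched to mean KSR1 knockdown profile by Pearson correlation and euclidean distance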
Scale: mean correlation with KSR1 profile and KSR1 correlation: higher = expression change more like KSR1 knockdown; mean distance from KSR1 profile: higher = expression change less like KSR1 knockdown

gene	mean correlation with KSR1 profile	mean distance from KSR1 profile	KSR1 correlation, replicate 1	KSR1 correlation, replicate 2	KSR1 correlation, replicate 3
BAG6 (BAG cochaperone 6)	-0.0678	2.89	0.0622	-0.0483	-0.136
NMU (neuromedin U)	-0.0481	1.72	-0.09	-0.258	0.199
MYCLP1 (MYCL pseudogene 1)	-0.305	2.16	-0.0472	-0.00146	-0.504
HDGF (heparin binding growth factor)	-0.0898	1.97	-0.0481	-0.138	-0.104
ICE1 (interactor of little elongation complex ELL subunit 1)	-0.38	2.58	-0.394	-0.576	-0.231
HOMER1 (homer scaffold protein 1)	-0.604	2.8	-0.52	-0.625	-0.493
PRRT1 (proline rich transmembrane protein 1)	-0.381	2.73	-0.526	-0.521	-0.31
IDI1 (isopentenyl-diphosphate delta isomerase 1)	0.674	2.33	0.543	0.655	0.689
COG6 (component of oligomeric golgi complex 6)	-0.679	1.79	-0.78	-0.63	-0.497
ETNPPL (ethanolamine-phosphate phospho-lyase)	0.00655	2.01	0.339	0.155	-0.218
FABP6 (fatty acid binding protein 6)	-0.748	2.09	-0.796	-0.6	-0.795
CYC1 (cytochrome c1)	0.411	1.97	0.387	0.358	0.442
PDE5A (phosphodiesterase 5A)	0.269	1.59	-0.0654	0.413	-0.191
MFSD6 (major facilitator superfamily domain containing 6)	0.495	1.73	0.678	0.404	0.27
HOXC8 (homeobox C8)	0.405	1.39	0.389	0.125	0.358
TSPAN31 (tetraspanin 31)	0.68	0.805	0.561	0.886	0.763
SSUH2 (ssu-2 homolog)	-0.478	1.62	-0.655	-0.596	-0.322
BTBD3 (BTB domain containing 3)	-0.47	1.91	-0.189	-0.628	-0.339
FBXO46 (F-box protein 46)	-0.433	1.12	-0.427	-0.0912	-0.566
L3MBTL1 (L3MBTL histone methyl-lysine binding protein 1)	0.0218	1.18	0.13	0.0112	-0.19
IFNAR1 (interferon alpha and beta receptor subunit 1)	-0.0235	2.29	-0.0901	-0.0041	0.0197
TM4SF4 (transmembrane 4 L six family member 4)	0.293	3.88	0.297	0.314	0.109
TMEM167B (transmembrane protein 167B)	0.142	2.62	0.28	0.278	-0.0194
DSCC1	-0.848	6.56	-0.729	-0.149	-0.14
ATP1A2 (ATPase Na+/K+ transporting subunit alpha 2)	0.424	1.2	0.421	0.427	0.396
CRIPTO (cripto, EGF-CFC family member)	-0.17	1.83	0.257	-0.352	-0.391
RETN (resistin)	0.0371	0.863	0.309	0.0342	0.195
TNFRSF1B (TNF receptor superfamily member 1B)	0.487	3.42	0.619	0.464	0.372
UBA1 (ubiquitin like modifier activating enzyme 1)	0.0811	2.92	0.171	0.0108	0.00266
RSRC2 (arginine and serine rich coiled-coil 2)	-0.137	1.31	-0.277	-0.22	0.05
ARAP3 (ArfGAP with RhoGAP domain, ankyrin repeat and PH domain 3)	-0.605	1.98	-0.574	-0.474	-0.727
ABCC9 (ATP binding cassette subfamily C member 9)	-0.0538	1.17	0.23	-0.195	-0.354
TRIAP1 (TP53 regulated inhibitor of apoptosis 1)	-0.0871	2.34	0.112	-0.277	0.0775
EPS15L1 (epidermal growth factor receptor pathway substrate 15 like 1)	-0.128	2.08	-0.0273	-0.226	-0.157
NOP14 (NOP14 nucleolar protein)	0.0113	3.67	0.152	0.0271	-0.154
MPI (mannose phosphate isomerase)	0.0207	1.8	0.0915	0.1	-0.362
RPL19 (ribosomal protein L19)	0.51	3.22	-0.381	-0.0496	0.902
OBP2A (odorant binding protein 2A)	-0.459	1.38	-0.601	-0.799	-0.534
FAM53B (family with sequence similarity 53 member B)	-0.531	1.36	-0.252	-0.249	-0.634
SLC2A10	-0.0139	2.74	-0.231	-0.0435	0.0602
PHOSPHO1 (phosphoethanolamine/phosphocholine phosphatase 1)	-0.533	1.68	-0.571	-0.432	-0.571
AMPH (amphiphysin)	0.0154	2.64	0.213	-0.109	-0.0331
DLD (dihydrolipoamide dehydrogenase)	-0.049	1.49	-0.224	-0.128	0.11
CACNG2 (calcium voltage-gated channel auxiliary subunit gamma 2)	-0.201	3.1	-0.112	-0.298	-0.232
GJA5 (gap junction protein alpha 5)	-0.136	2.67	-0.183	-0.494	-0.12
MCHR1 (melanin concentrating hormone receptor 1)	0.361	2.55	0.391	0.415	0.143
LRMDA (leucine rich melanocyte differentiation associated)	0.547	1.81	0.395	0.509	0.438
UGT1A7 (UDP glucuronosyltransferase family 1 member A7)	-0.077	1.97	-0.0852	0.295	-0.211
RPS6KB2 (ribosomal protein S6 kinase B2)	-0.0931	2.79	0.331	-0.18	-0.567
RBMX2 (RNA binding motif protein X-linked 2)	-0.191	2.41	-0.0603	-0.453	-0.113

Part of the list above, limited to “mean correlation with KSR1 profile”.
PHOSPHO1 (phosphoethanolamine/phosphocholine phosphatase 1): -0.533
AMPH (amphiphysin): 0.0154
